Binding data for one molecule are collected here from patent US20240309112A1.

The chains behind the UniProt entries cited, without tags or fusion partners. Where a name states a change or a piece, a line headed by the entry shows the natural chain unless it says otherwise.
UniProt Q9UM07: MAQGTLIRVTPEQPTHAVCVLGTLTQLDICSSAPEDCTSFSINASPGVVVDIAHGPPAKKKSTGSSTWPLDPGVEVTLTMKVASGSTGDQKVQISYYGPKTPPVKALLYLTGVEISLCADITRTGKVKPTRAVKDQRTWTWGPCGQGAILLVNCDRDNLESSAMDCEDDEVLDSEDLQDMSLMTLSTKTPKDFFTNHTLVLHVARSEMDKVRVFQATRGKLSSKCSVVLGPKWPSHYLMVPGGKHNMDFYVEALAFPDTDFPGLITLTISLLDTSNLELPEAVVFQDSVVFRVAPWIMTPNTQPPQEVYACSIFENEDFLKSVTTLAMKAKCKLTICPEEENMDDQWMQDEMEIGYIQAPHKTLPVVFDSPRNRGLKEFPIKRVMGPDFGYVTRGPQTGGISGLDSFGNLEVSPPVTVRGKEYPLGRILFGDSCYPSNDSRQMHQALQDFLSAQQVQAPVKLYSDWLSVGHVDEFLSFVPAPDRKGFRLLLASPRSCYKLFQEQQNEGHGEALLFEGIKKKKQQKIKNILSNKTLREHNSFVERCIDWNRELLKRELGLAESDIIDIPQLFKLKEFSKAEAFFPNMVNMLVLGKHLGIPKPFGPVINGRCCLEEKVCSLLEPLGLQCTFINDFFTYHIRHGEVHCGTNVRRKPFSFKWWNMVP

No constants are given. Whether binding was seen depends on the method and setting. Some results given as binding are weak or reduced against the parent protein; the word gives no strength.

The assay deals with biotin-labeled human PAD4 protein (human) (UniProt Q9UM07). Put plainly: SPR, Biacore T200, biotin-labeled human PAD4 captured on chip, 10 nM IgG as analyte.

B1: Lib1(6R)-1-39 (antibody, human IgG1, lambda, V domains shown)
VH: EVQLLESGGGLVQPGGSLRLSCAASGFTFSTYAMGWVRQAPGKGLEFVAAIRNDGSWTGTSVNAKTRFTISRDNSKNTLYLQMNSLRAEDTAVYYCAKYTGSSGGSIGAWGQGTLVTVSS
VL: SYELTQPPSVSVSPGQTARITCSGGNRNYYYGWYQQKPGQAPVTVIYANDKRPSGIPERFSGSNSGSTTTLTISGVQAEDEADYYCGTATTGKYVFGGGTKLTVLG
Take B1: the binding result was “binds”.
